PubChem BioAssay AID1508597 – Cure First, 2020

Assay: 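Genes whose silencing sensitises or protects ovarian cancer cells against rucaparib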 (primary screen)
System: human ovarian carcinoma lines grown from tumours: OCI-P5x (papillary serous) and OCI-C5x (clear cell)
Reagent: siRNA pool against human genes, 1.25 pmol siRNA per well
Time to read-out: 72 h or 96 h, depending on the cell culture
Treatment: rucaparib 20 µM (about IC30) or vehicle, present until read-out
Measurement: 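Luminescent ATP-based viability assay read 72 or 96 h after transfection, depending on culture, given as normalised percent viability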
Direction: viability, normalised: higher = more viable cells remaining
Active means: 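Active when normalised viability falls below 80 percent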
Calls: active = viability under 80%; inactive = viability 80% or more
In all, the deposit lists about 2,100 reagents; shown is a part drawn at random. 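Calls flag viability under 80% in either arm, not effects specific to rucaparib; the reference for percent is not stated.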 The record does not give: the 100% reference.

viability, normalised (%)	Call	Target gene	rucaparib or vehicle	cell line	technical replicate
52.9	active	CSNK1G3 (GeneID 1456)	Rucaparib	OCI-C5x (clear cell)	1
50	active	CSNK1G3 (GeneID 1456)	Rucaparib	OCI-C5x (clear cell)	2
39.2	active	CSNK1G3 (GeneID 1456)	Rucaparib	OCI-C5x (clear cell)	3
95.6	inactive	CSNK1G3 (GeneID 1456)	Rucaparib	OCI-P5x (serous)	1
86.1	inactive	CSNK1G3 (GeneID 1456)	Rucaparib	OCI-P5x (serous)	2
70	active	CSNK1G3 (GeneID 1456)	Rucaparib	OCI-P5x (serous)	3
115	inactive	CSNK1G3 (GeneID 1456)	Vehicle	OCI-C5x (clear cell)	1
65.4	active	CSNK1G3 (GeneID 1456)	Vehicle	OCI-C5x (clear cell)	2
63.5	active	CSNK1G3 (GeneID 1456)	Vehicle	OCI-C5x (clear cell)	3
66.9	active	CSNK1G3 (GeneID 1456)	Vehicle	OCI-P5x (serous)	1
71.3	active	CSNK1G3 (GeneID 1456)	Vehicle	OCI-P5x (serous)	2
78.4	active	CSNK1G3 (GeneID 1456)	Vehicle	OCI-P5x (serous)	3
42	active	BRD9 (GeneID 65980)	Rucaparib	OCI-C5x (clear cell)	1
45.7	active	BRD9 (GeneID 65980)	Rucaparib	OCI-C5x (clear cell)	2
34.7	active	BRD9 (GeneID 65980)	Rucaparib	OCI-C5x (clear cell)	3
71.2	active	BRD9 (GeneID 65980)	Rucaparib	OCI-P5x (serous)	1
77.4	active	BRD9 (GeneID 65980)	Rucaparib	OCI-P5x (serous)	2
74.4	active	BRD9 (GeneID 65980)	Rucaparib	OCI-P5x (serous)	3
28.2	active	BRD9 (GeneID 65980)	Vehicle	OCI-C5x (clear cell)	1
44.5	active	BRD9 (GeneID 65980)	Vehicle	OCI-C5x (clear cell)	2
49.3	active	BRD9 (GeneID 65980)	Vehicle	OCI-C5x (clear cell)	3
76	active	BRD9 (GeneID 65980)	Vehicle	OCI-P5x (serous)	1
68.6	active	BRD9 (GeneID 65980)	Vehicle	OCI-P5x (serous)	2
89.8	inactive	BRD9 (GeneID 65980)	Vehicle	OCI-P5x (serous)	3
